Results on one compound are retold here after PMC7926471 (Viruses, 2021).

In general, EC50 refers to the concentration that produces a half-maximal response. The low end stands for higher potency in that assay, the high end for lower potency in that assay.

This assay concerns HCoV-229E. In words: Viral replication inhibition assay: HCoV-229E in MRC5 cells, PFU assay. Format: cell-based, Human Coronavirus 229E.

For `CN(C)C(=O)C(CCN1CCC(O)(c2ccc(Cl)cc2)CC1)(c1ccccc1)c1ccccc1` [Loperamide, loperamide], for the setting “HCoV-229E, MRC5 cells”, the “SI (selectivity index, CC50/EC50)” value came out at 106.6166. The EC50 (Human coronavirus 229E, MRC5, 48 h) came out at 0.0947 µM.
